Measured values reported in the supplement of paper PMC12819154, “High-throughput peptide-centric local stability assay extends protein–ligand identification to membrane proteins, tissues and bacteria” (Nature Structural & Molecular Biology, 2025).
Some of the results follow. Most entries show no effect beyond the scatter of the controls.

The chains behind the UniProt entries cited, without tags or fusion partners. Where a name states a change or a piece, a line headed by the entry shows the natural chain unless it says otherwise.
UniProt P31459: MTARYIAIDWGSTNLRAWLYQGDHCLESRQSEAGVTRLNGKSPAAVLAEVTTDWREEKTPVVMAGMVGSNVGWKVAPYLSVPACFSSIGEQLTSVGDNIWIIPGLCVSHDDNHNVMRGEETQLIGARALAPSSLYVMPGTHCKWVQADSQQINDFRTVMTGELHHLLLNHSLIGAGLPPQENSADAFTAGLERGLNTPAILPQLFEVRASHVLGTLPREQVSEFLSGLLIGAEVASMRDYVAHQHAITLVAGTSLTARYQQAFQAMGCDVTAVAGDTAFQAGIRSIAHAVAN
UniProt P24192: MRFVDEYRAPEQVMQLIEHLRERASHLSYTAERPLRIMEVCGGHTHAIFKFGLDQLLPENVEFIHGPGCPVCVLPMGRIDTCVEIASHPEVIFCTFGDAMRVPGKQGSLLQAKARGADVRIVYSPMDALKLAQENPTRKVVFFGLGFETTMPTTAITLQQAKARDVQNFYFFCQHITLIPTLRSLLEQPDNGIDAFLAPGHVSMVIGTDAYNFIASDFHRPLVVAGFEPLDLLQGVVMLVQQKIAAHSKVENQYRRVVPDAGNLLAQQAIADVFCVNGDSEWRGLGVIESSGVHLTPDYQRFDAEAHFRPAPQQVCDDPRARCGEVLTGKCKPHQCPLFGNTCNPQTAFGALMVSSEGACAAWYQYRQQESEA
UniProt P31131: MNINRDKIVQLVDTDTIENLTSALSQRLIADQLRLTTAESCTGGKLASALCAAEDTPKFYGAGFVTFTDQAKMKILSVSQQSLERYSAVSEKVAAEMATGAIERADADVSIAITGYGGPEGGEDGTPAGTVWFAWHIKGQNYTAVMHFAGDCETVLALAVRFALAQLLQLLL
UniProt P33634: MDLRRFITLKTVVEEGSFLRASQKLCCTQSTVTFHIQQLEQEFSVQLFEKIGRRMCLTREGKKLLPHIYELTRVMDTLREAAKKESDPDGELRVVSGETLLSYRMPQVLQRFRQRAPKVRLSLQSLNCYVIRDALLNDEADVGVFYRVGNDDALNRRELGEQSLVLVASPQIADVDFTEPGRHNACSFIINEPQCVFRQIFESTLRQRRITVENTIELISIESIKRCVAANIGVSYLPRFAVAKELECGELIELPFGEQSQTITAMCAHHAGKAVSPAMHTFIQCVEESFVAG
UniProt P27303: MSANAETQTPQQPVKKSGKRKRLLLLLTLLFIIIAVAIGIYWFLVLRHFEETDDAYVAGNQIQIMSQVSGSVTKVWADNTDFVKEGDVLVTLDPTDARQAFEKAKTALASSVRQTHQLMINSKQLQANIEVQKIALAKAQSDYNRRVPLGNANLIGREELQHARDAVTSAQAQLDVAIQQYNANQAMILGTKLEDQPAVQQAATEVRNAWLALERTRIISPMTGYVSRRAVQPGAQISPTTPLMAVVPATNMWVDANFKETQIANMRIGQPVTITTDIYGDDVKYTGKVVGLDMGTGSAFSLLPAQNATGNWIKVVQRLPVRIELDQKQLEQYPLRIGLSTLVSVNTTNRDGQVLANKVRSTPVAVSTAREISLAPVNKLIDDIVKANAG
UniProt P27241: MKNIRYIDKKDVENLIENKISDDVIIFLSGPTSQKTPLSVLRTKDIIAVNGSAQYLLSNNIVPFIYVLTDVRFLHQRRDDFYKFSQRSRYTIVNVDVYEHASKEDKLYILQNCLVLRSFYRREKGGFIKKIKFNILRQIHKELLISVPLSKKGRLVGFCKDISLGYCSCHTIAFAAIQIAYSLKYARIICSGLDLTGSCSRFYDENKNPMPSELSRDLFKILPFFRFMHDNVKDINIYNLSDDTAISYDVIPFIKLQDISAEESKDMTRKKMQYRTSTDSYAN
UniProt P30860: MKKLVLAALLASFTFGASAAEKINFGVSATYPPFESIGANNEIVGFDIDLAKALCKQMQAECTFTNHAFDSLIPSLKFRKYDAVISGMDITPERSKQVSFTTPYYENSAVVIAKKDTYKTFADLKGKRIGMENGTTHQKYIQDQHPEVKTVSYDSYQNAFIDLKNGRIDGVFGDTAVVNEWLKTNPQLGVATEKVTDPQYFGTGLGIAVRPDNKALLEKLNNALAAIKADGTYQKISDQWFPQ
UniProt P31142: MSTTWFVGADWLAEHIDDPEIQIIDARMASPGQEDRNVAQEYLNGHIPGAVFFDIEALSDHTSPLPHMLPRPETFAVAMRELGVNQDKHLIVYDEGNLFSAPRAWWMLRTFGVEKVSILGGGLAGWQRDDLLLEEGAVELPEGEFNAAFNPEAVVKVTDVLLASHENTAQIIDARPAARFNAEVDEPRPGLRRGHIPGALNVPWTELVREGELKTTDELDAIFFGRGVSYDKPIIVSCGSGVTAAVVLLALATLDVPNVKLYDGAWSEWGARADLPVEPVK
UniProt P25519: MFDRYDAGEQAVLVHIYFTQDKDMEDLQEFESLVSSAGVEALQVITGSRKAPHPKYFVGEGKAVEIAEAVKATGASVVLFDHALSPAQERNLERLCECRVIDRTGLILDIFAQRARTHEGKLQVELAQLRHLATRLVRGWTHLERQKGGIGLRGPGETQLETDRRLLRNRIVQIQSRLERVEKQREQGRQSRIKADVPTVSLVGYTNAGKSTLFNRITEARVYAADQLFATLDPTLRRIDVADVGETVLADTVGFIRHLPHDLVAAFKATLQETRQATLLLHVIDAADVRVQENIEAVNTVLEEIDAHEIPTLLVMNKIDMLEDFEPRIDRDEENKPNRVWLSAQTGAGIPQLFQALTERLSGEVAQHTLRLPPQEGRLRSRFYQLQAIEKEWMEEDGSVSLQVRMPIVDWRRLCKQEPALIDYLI
UniProt P28304: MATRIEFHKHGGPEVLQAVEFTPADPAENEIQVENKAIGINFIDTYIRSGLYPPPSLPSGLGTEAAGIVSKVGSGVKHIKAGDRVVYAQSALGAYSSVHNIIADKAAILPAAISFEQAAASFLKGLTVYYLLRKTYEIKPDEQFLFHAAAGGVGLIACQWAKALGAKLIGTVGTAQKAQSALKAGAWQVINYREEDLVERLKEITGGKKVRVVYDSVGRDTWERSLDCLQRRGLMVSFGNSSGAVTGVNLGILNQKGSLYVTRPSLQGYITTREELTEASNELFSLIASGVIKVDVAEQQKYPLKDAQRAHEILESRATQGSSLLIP

compound: CC1(C)S[C@@H]2[C@H](NC(=O)[C@H](N)c3ccccc3)C(=O)N2[C@H]1C(=O)O [ampicillin]; test: log2 fold change of tryptic peptide abundance, ligand vs vehicle (limited proteolysis) (log2 ratio); higher = more trypsin-susceptible (destabilized); conditions: ligand concentration: 10 uM; sample: E. coli crude lysate

Target	log2 fold change
UniProt P31459 (peptide sequence: GEETQLIGAR, peptide start residue: 118)	-0.355
UniProt P24192 (peptide sequence: IVYSPMDALK, peptide start residue: 121)	0.119
UniProt P31131 (peptide sequence: LASALCAAEDTPK, peptide start residue: 46)	-0.511
UniProt P33634 (peptide sequence: TVVEEGSFLR, peptide start residue: 11)	-0.0922
UniProt P30844 (peptide sequence: THHIDVAPLVAR, peptide start residue: 171)	-0.107
UniProt P27303 (peptide sequence: ETQIANMR, peptide start residue: 260)	0.234
UniProt P27241 (peptide sequence: LQDISAEESKDMTRK, peptide start residue: 256)	0.556
UniProt P30860 (peptide sequence: KYDAVISGMDITPER, peptide start residue: 80)	-0.173
UniProt P31142 (peptide sequence: ELGVNQDKHLIVYDEGNLFSAPR, peptide start residue: 81)	0.345
UniProt P25519 (peptide sequence: MPIVDWR, peptide start residue: 406)	-0.115
UniProt P28304 (peptide sequence: VVYDSVGRDTWER, peptide start residue: 212)	-0.503

Random excerpt: 2 entries already listed.
Target	log2 fold change
UniProt P28304 (peptide sequence: VVYDSVGRDTWER, peptide start residue: 212)	-0.503
UniProt P25519 (peptide sequence: MPIVDWR, peptide start residue: 406)	-0.115
